Laboratory results published in patent publication US20260079169A1, “VOLATILE ORGANIC COMPOUNDS AS MARKERS FOR CELLULAR COMMUNICATION” (Technion Research and Development Foundation Limited, priority 2020, published 2026).

Columns and labels:
[1] = system: different-cell pairs of BEAS-2B, A549, H1299, H1975 without physical contact under a mutual headspace; assay: VOCs headspace analysis (ITEX GC-MS) of different-cell pair co-culture headspace groups (Format-3), bulk cell samples; assay type: cell-based, human; parameters: key to Category (VOC increased or decreased relative to the control): ↑: Increased; ↓: decreased; ↑*: <0.01; ↑**: <0.001; details: for VOC level in headspace, area under curve (AUC) normalized by STD AUC: bulk 1 × 10^4 cell; for Category (VOC increased or decreased relative to the control): different-cell pair co-culture headspace (Format-3), averaged peak area (n = 3)
[2] = system: A549, H1299, H1975 human lung cancer lines and BEAS-2B normal cell line, each cultured alone; assay: VOCs headspace analysis (ITEX GC-MS) of mono-culture groups (Format-1), bulk cell samples 1×10^4 cells; assay type: cell-based; parameters: key to Category (VOC increased or decreased relative to the control): ↑: Increased; ↓: decreased; ↑*: <0.01; ↑**: <0.001; details: for VOC level in headspace, area under curve (AUC) normalized by STD AUC: bulk 1 × 10^4 cell

Row | Structure (SMILES) | VOC level in headspace, area under curve (AUC) normalized by STD AUC ([1]; A + B (BEAS-2B + A549)) | VOC level in headspace, area under curve (AUC) normalized by STD AUC ([1]; A + C (BEAS-2B + H1299)) | VOC level in headspace, area under curve (AUC) normalized by STD AUC ([1]; A + D (BEAS-2B + H1975)) | VOC level in headspace, area under curve (AUC) normalized by STD AUC ([1]; B + C (A549 + H1299)) | VOC level in headspace, area under curve (AUC) normalized by STD AUC ([1]; B + D (A549 + H1975)) | VOC level in headspace, area under curve (AUC) normalized by STD AUC ([1]; C + D (H1299 + H1975)) | VOC level in headspace, area under curve (AUC) normalized by STD AUC ([2]; A (BEAS-2B) mono-culture) | VOC level in headspace, area under curve (AUC) normalized by STD AUC ([2]; B (A549) mono-culture) | VOC level in headspace, area under curve (AUC) normalized by STD AUC ([2]; C (H1299) mono-culture) | VOC level in headspace, area under curve (AUC) normalized by STD AUC ([2]; D (H1975) mono-culture) | Category (VOC increased or decreased relative to the control) ([1]; 24 h) | Category (VOC increased or decreased relative to the control) ([1]; 72 h) | Category (VOC increased or decreased relative to the control) ([2]; mono-culture groups (Format-1), 48 h incubation, averaged peak area (n = 3))
1 | Cc1ccc(C=Nc2ccc(C)cc2)cc1 [VOC72] | 4.311 | 7.3 | 4.219 | 3.205 | 0 | 1.891 | 2.104 | 0 | 4.6374 | 0 |  |  | 
2 | CCCCCCCCCCCCCCCC [VOC8] | 1 | 0 | 0 | 0 | 0 | 0 | 0 | 0 | 1.5507 | 9.863 |  |  | 
3 | CC(C)CO [VOC95] | 5.494 | 0.3614 | 0 | 0 | 7.822 | 0.462 | 4.954 | 0 | 0 | 6.944 |  |  | 
4 | CCO [Ethanol] |  |  |  |  |  |  |  |  |  |  | ↑ | ↑* (↑*: <0.01) | ↑
5 | CC(C)CC=O [VOC3] | 0 | 0 | 0 | 0 | 0 | 0 | 0 | 0 | 0 | 0 |  |  | 
6 | O=C(O)CO [VOC58] | 1.771 | 3.826 | 0 | 8.161 | 0 | 0 | 0 | 6.95 | 8.49 | 0 |  |  | 

The amount applied is not stated for every result.
